The target of this test is Myelin basic protein (MBP) from bovine brain (bovine) (UniProt P02687). Put plainly: SPR; Biacore T200; MBP immobilised on a CM4 chip (~1,500 RU, amine coupling); analytes injected at 5.0 μM, 25 μL/min, 200 s; HBS-EP+, 25°C; both purified. (In general: Surface plasmon resonance follows binding to a sensor surface in real time, without labels.)

Protein sequences, listed by entry. Tags and fused reporters are not part of them.
UniProt P02687: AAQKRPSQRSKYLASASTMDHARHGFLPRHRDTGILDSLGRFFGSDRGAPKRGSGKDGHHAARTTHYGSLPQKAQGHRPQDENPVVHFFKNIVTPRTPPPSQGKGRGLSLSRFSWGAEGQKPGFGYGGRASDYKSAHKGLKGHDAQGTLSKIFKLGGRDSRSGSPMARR
UniProt P16402: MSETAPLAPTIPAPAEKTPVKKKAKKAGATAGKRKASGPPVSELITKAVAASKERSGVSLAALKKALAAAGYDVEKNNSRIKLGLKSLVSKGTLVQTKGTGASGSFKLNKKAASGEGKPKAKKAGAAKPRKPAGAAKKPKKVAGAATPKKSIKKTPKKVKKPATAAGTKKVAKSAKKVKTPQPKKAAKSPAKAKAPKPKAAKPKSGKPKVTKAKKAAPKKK

These are yes or no findings as the source states them, for the method shown.

For “Histone H1.3 human, recombinant (from UniProt P16402 1-221)”, the binding result is reported as “no binding (tested: 5.0 μM)”.

The values above are taken from PMC4172982.
